Measured values published in the supplement of paper PMC8728848.
The other results are listed elsewhere or left out.

Legend:
Test in all cases: glycan array binding signal (z-score within array); higher = stronger binding
Conditions in all cases: glycan notation: IUPAC condensed, linker removed
[1] = biological target: Gal(b1-4)GlcNAc(b1-3)[GlcNAc(b1-6)]Gal(b1-4)GlcNAc
Summary of the method: (§1)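 The binding signal is a Z-score computed within each array. Data were drawn from 3228 arrays in the Consortium for Functional Glycomics database, restricted to those with a known protein sequence. Scores were averaged over arrays of the same protein sequence at different concentrations or buffers, and over linkers, and negative values can be taken as non-binding.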

[2] = biological target: Gal(b1-4)GlcNAc(b1-6)Gal(b1-4)GlcNAc
Summary of the method: as §1

[3] = biological target: Gal(b1-4)GlcNAc(b1-6)Gal(b1-4)GlcNAc(b1-6)GalNAc
Summary of the method: as §1

[4] = biological target: Gal(b1-4)GlcNAc(b1-6)GalNAc
Summary of the method: as §1

[5] = biological target: Gal(b1-4)GlcNAc(b1-6)[Gal(b1-3)]GalNAc
Summary of the method: as §1

[6] = biological target: Gal3S(b1-3)GalNAc
Summary of the method: as §1

[7] = biological target: Gal3S(b1-3)GlcNAc
Summary of the method: as §1

[8] = biological target: Gal3S(b1-3)[Fuc(a1-4)]GlcNAc
Summary of the method: as §1

[9] = biological target: Gal3S(b1-4)Glc
Summary of the method: as §1

[10] = biological target: Gal3S(b1-4)Glc6S
Summary of the method: as §1

[11] = biological target: Gal3S(b1-4)GlcNAc
Summary of the method: as §1

[12] = biological target: Gal3S(b1-4)GlcNAc6S
Summary of the method: as §1

[13] = biological target: Gal3S(b1-4)[Fuc(a1-3)]Glc
Summary of the method: as §1

[14] = biological target: Gal3S4S(b1-4)GlcNAc
Summary of the method: as §1

[15] = biological target: Gal3S6S(b1-4)GlcNAc
Summary of the method: as §1

[16] = biological target: Gal3S6S(b1-4)GlcNAc6S
Summary of the method: as §1

[17] = biological target: Gal4S(b1-4)GlcNAc
Summary of the method: as §1

[18] = biological target: Gal4S6S(b1-4)GlcNAc
Summary of the method: as §1

[19] = biological target: Gal6S(b1-4)Glc
Summary of the method: as §1

[20] = biological target: Gal6S(b1-4)Glc6S
Summary of the method: as §1

[21] = biological target: Gal6S(b1-4)GlcNAc
Summary of the method: as §1

[22] = biological target: Gal6S(b1-4)GlcNAc6S
Summary of the method: as §1

[23] = biological target: GalNAc(a1-3)Gal
Summary of the method: as §1

[24] = biological target: GalNAc(a1-3)GalNAc
Summary of the method: as §1

[25] = biological target: GalNAc(b1-3)Gal
Summary of the method: as §1

[26] = biological target: GalNAc(b1-3)Gal(a1-4)Gal(b1-4)GlcNAc
Summary of the method: as §1

[27] = biological target: GalNAc(b1-3)Gal(a1-4)Gal(b1-4)GlcNAc(b1-3)Gal(b1-4)Glc
Summary of the method: as §1

[28] = biological target: GalNAc(b1-3)GalNAc
Summary of the method: as §1

[29] = biological target: GalNAc(b1-4)GlcNAc
Summary of the method: as §1

[30] = biological target: GalNAc(b1-4)GlcNAc(b1-2)Man(a1-3)[GalNAc(b1-4)GlcNAc(b1-2)Man(a1-6)]Man(b1-4)GlcNAc(b1-4)GlcNAc
Summary of the method: as §1

[31] = biological target: Glc(a1-4)Glc
Summary of the method: as §1

[32] = biological target: Glc(a1-6)Glc(a1-6)Glc
Summary of the method: as §1

[33] = biological target: Glc(b1-4)Glc
Summary of the method: as §1

[34] = biological target: Glc(b1-6)Glc
Summary of the method: as §1

[35] = biological target: GlcA(b1-3)Gal
Summary of the method: as §1

[36] = biological target: GlcA(b1-3)GlcNAc
Summary of the method: as §1

[37] = biological target: GlcA(b1-6)Gal
Summary of the method: as §1

[38] = biological target: GlcNAc(a1-3)Gal(b1-4)GlcNAc
Summary of the method: as §1

[39] = biological target: GlcNAc(a1-4)Gal(b1-3)GlcNAc
Summary of the method: as §1

[40] = biological target: GlcNAc(a1-4)Gal(b1-4)GalNAc
Summary of the method: as §1

[41] = biological target: GlcNAc(a1-4)Gal(b1-4)GlcNAc
Summary of the method: as §1

[42] = biological target: GlcNAc(a1-4)Gal(b1-4)GlcNAc(b1-3)Gal(b1-4)Glc
Summary of the method: as §1

[43] = biological target: GlcNAc(a1-4)Gal(b1-4)GlcNAc(b1-3)Gal(b1-4)GlcNAc
Summary of the method: as §1

[44] = biological target: GlcNAc(a1-4)Gal(b1-4)GlcNAc(b1-3)Gal(b1-4)GlcNAc(b1-3)Gal(b1-4)GlcNAc
Summary of the method: as §1

[45] = biological target: GlcNAc(a1-4)Gal(b1-4)GlcNAc(b1-3)Gal(b1-4)[Fuc(a1-3)]GlcNAc(b1-3)Gal(b1-4)[Fuc(a1-3)]GlcNAc
Summary of the method: as §1

B1: CTLX (Homo sapiens), Q6UXS0 (protein)
chain: SLCPLFWMEFKGHCYRFFPLNKTWAEADLYCSEFSVGRKSAKLASIHSWEENVFVYDLVNSCVPGIPADVWTGLHDHRQEGQFEWTDGSSYDYSYWDGSQPDDGVHADPEEEDCVQIWYRPTSALRSWNDNTCSRKFPFVCKIPSLTIH
glycan array binding signal (z-score) [1]: -0.019 | glycan array binding signal (z-score) [2]: -0.149 | glycan array binding signal (z-score) [3]: 0.499 | glycan array binding signal (z-score) [4]: -0.23 | glycan array binding signal (z-score) [5]: -0.234 | glycan array binding signal (z-score) [6]: -0.737 | glycan array binding signal (z-score) [7]: -1.01 | glycan array binding signal (z-score) [8]: -0.77 | glycan array binding signal (z-score) [9]: -0.372 | glycan array binding signal (z-score) [10]: 0.152 | glycan array binding signal (z-score) [11]: 1.03 | glycan array binding signal (z-score) [12]: -0.961 | glycan array binding signal (z-score) [13]: -0.137 | glycan array binding signal (z-score) [14]: -0.848 | glycan array binding signal (z-score) [15]: 0.993 | glycan array binding signal (z-score) [16]: -0.11 | glycan array binding signal (z-score) [17]: 0.292 | glycan array binding signal (z-score) [18]: 0.725 | glycan array binding signal (z-score) [19]: -0.13 | glycan array binding signal (z-score) [20]: 1.13 | glycan array binding signal (z-score) [21]: 0.34 | glycan array binding signal (z-score) [22]: -0.915 | glycan array binding signal (z-score) [23]: -0.098 | glycan array binding signal (z-score) [24]: -0.619 | glycan array binding signal (z-score) [25]: -0.647 | glycan array binding signal (z-score) [26]: -0.505 | glycan array binding signal (z-score) [27]: 0.605 | glycan array binding signal (z-score) [28]: -0.421 | glycan array binding signal (z-score) [29]: 0.071 | glycan array binding signal (z-score) [30]: 0.305 | glycan array binding signal (z-score) [31]: 1.17 | glycan array binding signal (z-score) [32]: 0.21 | glycan array binding signal (z-score) [33]: -0.404 | glycan array binding signal (z-score) [34]: -0.705 | glycan array binding signal (z-score) [35]: -0.766 | glycan array binding signal (z-score) [36]: 0.103 | glycan array binding signal (z-score) [37]: -1.51 | glycan array binding signal (z-score) [38]: -0.363 | glycan array binding signal (z-score) [39]: 3.54 | glycan array binding signal (z-score) [40]: 0.403 | glycan array binding signal (z-score) [41]: -0.184 | glycan array binding signal (z-score) [42]: -0.478 | glycan array binding signal (z-score) [43]: 0.831 | glycan array binding signal (z-score) [44]: 0.522 | glycan array binding signal (z-score) [45]: 1.83
